At least one structure is not confirmed: it was looked up by name or label, or the drawing left a doubt.
Test system: Db/Db mice
Experiment: Blood glucose and serum insulin levels in db/db mice, 56 days
Format: in vivo
Details: compared among Compound 102, vehicle and rosiglitazone
Method: Blood glucose levels were measured once per week and serum insulin levels measured at the beginning and at the end of the study.

## CN(CCOc1ccc(CC2SC(=O)NC2=O)cc1)c1ccccn1 (stereo not shown) [rosiglitazone, reference compound]
  extent of serum insulin lowering associated with pancreatic β-cell loss: serum insulin lowering associated with pancreatic β-cell loss
